# Source: PubChem BioAssay AID1671190 (National Center for Advancing Translational Sciences (NCATS), 2021)
# By UniProt entry, the sequences of proteins in these tests, tags left out.
# UniProt P18054, whole entry, looked up: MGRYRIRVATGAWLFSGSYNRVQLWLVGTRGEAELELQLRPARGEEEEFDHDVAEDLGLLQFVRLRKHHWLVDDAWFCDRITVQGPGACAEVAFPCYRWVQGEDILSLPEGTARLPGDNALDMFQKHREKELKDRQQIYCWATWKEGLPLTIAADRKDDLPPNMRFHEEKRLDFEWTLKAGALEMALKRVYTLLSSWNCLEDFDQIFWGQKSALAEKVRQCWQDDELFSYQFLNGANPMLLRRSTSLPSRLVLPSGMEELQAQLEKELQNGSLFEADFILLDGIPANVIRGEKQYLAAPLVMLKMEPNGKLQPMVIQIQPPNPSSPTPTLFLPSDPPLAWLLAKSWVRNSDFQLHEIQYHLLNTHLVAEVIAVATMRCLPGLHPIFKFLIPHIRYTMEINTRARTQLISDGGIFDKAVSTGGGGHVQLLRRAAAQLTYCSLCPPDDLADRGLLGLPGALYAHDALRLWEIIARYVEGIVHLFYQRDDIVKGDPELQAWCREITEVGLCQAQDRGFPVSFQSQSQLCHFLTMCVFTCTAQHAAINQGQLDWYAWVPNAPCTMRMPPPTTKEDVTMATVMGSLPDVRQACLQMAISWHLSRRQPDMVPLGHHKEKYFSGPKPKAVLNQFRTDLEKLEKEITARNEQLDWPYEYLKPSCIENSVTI
# Values joined by “and” are separate entries in the source; they are usually repeats but may differ in a detail not shown here. Equal entries are not always repeated. About 6,100 (1.1%) of roughly 580,000 compounds were called active. This list was built around the results that the source calls inconclusive (neither active nor inactive); the mix of calls is not that of the screen. Calls follow the shape of the dose curve; as a rule, active = well fitted inhibition curve with a large enough effect; inconclusive = small, poorly fitted or top-dose-only effect, or another doubt; inactive = no such curve, though single readings can be large or run the other way. A potency beside an inconclusive call is a rough fit, not a confirmed value.
# Molecular target: Polyunsaturated fatty acid lipoxygenase ALOX12 (Homo sapiens) (UniProt P18054)
# Assay: Primary qHTS assay for inhibitors of human arachidonate 12S-lipoxygenase (ALOX12): Round 2
# Settings: purified 12hLO, xylenol orange hydroperoxide absorbance; activity change, negative = inhibition: at 108 µM (top of the series) unless noted
# How it was run: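 Purified human 12hLO (150 nM final) in 25 mM Hepes, 0.01% Triton X-100, pH 7.0 was preincubated 15 min at room temperature with compound. Then 40 uM arachidonic acid was added, 30 min. Hydroperoxide was read by Fe-XO absorbance ratio 573/405 nm.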
# % is scaled to controls: 0 for no effect and ±100 for the full control effect; potency is read from the fitted curve at half-maximal effect.
SMILES,Potency,"activity change, negative = inhibition"
C/C(=N/NC(=S)Nc1ccccc1)c1ccc2c(c1)OCO2,"inconclusive: 39.8 µM [inhibitor, partial curve]",
C/C(=N/Nc1ccccc1C(F)(F)F)c1ccc(Cl)cc1Cl,"inconclusive: 22.4 µM [inhibitor, partial curve]",
CC1=C(c2ccc(F)cc2)S(=O)(=O)N=C1N1CCC(C(=O)NCCc2cccc(C)c2)CC1,"inconclusive: 89.1 µM [inhibitor, partial curve, poor fit]",
CCN1Cc2c(/C=C/c3ccccc3)nc3ccc(OC)cc3c2N(c2cccc(Cl)c2)C1,"inconclusive: 50.1 µM [inhibitor, partial curve, poor fit]",
Oc1ccc(Cl)cc1-c1cc(-c2ccco2)[nH]n1,"inconclusive: 35.5 µM [inhibitor, partial curve, poor fit]",
Nc1nc2c(s1)C(c1cccc(OCc3cccc(F)c3)c1)CC(=O)N2 (stereo not given),active: 3.55 µM,
COc1cccc(-c2nc(CS(=O)(=O)CC(=O)NCc3cccc(Cl)c3)c(C)o2)c1,"inconclusive: 141 µM [inhibitor, single point] and inconclusive: 25.1 µM [inhibitor, partial curve, poor fit]",
COc1ccc(Oc2coc3cc(OC(=O)c4cncc(Br)c4)ccc3c2=O)cc1,"inconclusive: 126 µM [inhibitor, partial curve, poor fit]",
Cc1cc(O)c(C=Nc2cccc(Cl)c2)c(=O)o1,inactive,
C[C@@H]1C(=O)O[C@H]2[C@H]1CC[C@@]1(C)Cc3sc(NC(=O)COCC(=O)O)nc3[C@@H](C)[C@H]21,"inconclusive: 31.6 µM [inhibitor, partial curve]",
COCCNC(=O)[C@@H]1C[C@H](Oc2cccnc2)CN1C(=O)COc1ccccc1,inactive,
Cn1c(=O)c2c(nc(Br)n2CC(=O)c2ccc(F)cc2)n(C)c1=O,"inconclusive: 15.8 µM [inhibitor, partial curve, poor fit]",
O=C(CN1CCN(c2ccccc2F)CC1)Nc1ncc2c(n1)CCCC2=O,inactive,
O=C(O)Cc1ccc2nc[nH]c2c1,"inconclusive: 31.6 µM [inhibitor, partial curve]",
C[C@@H]1CCCCO[C@@H](CN(C)C(=O)c2ccccc2)[C@@H](C)CN([C@H](C)CO)C(=O)c2cc(N(C)C)ccc2O1,"inconclusive: 112 µM [inhibitor, partial curve, poor fit]",
Cc1cccc(NC(=O)Cn2c(O)c(N=NC(=O)c3ccccc3O)c3ccccc32)c1,inactive,
Cc1cccc(N2CCN(CCCNC(=O)c3ccc(NC(=O)C4=CSCCO4)cc3)CC2C)c1 (stereo not given),"inconclusive: 7.94 µM [inhibitor, partial curve, poor fit]",
Cc1cccc(C)c1NC(=O)CN1CCN(CC(=O)NCC2(N3CCCCC3)CCCCC2)CC1,,inconclusive: -32.9% [inhibitor]
CNC(=O)c1cn2c(n1)CN(C(=O)c1ccccc1)CC2,,inactive: 2.06% [at 12.5 µM]
Cc1noc2c(Nc3ccc(C(N)=O)cc3)cc(-c3ccsc3)nc12,inactive,
O=[N+]([O-])c1ccc2c(c1)N([O-])C1(CCCCC1)[N+]2=O,"inconclusive: 31.6 µM [inhibitor, single point]",
Cc1ccc(N2C(=O)c3ccc(C(=O)N4CCN(c5ccc(C)c(C)c5)CC4)cc3C2=O)cc1,inactive,

# 4 structures out of the list, ordered by SMILES length, rising:
SMILES,Potency,"activity change, negative = inhibition"
O=C(O)Cc1ccc2nc[nH]c2c1,"inconclusive: 31.6 µM [inhibitor, partial curve]",
Oc1ccc(Cl)cc1-c1cc(-c2ccco2)[nH]n1,"inconclusive: 35.5 µM [inhibitor, partial curve, poor fit]",
Cc1ccc(N2C(=O)c3ccc(C(=O)N4CCN(c5ccc(C)c(C)c5)CC4)cc3C2=O)cc1,inactive,
C[C@@H]1CCCCO[C@@H](CN(C)C(=O)c2ccccc2)[C@@H](C)CN([C@H](C)CO)C(=O)c2cc(N(C)C)ccc2O1,"inconclusive: 112 µM [inhibitor, partial curve, poor fit]",

# Next part

SMILES,Potency,"activity change, negative = inhibition"
O=C(NCC(F)(F)F)C1CN(c2ccccc2)C(=O)N1 (stereo not given),inactive,
COc1ccc([N+](=O)[O-])cc1NC(=O)CSCc1cc(C)cc(C)c1,"inconclusive: 39.8 µM [inhibitor, partial curve, poor fit]",
COc1cccc(CN2CCN(C(=O)c3ccc(-c4ccccc4)cc3)CC2)c1OC,"inconclusive: 0.447 µM [inhibitor, full curve, poor fit]",
CCc1ccc(C(=O)CSc2nc(N)cc(=O)[nH]2)cc1,inactive,
O=C(NCC(=O)N1CCOCC1)c1ccc(Cl)c(Cl)c1,"inconclusive: 50.1 µM [inhibitor, partial curve, poor fit]",
CNCCC1Sc2ccccc2Oc2ccccc21 (stereo not given),"inconclusive: 1.26 µM [inhibitor, full curve, poor fit]",
C=CCn1c2ccccc2c(=O)c2cc(C#CC[C@@H](C)O)ccc21,inactive,
O=C(NCc1cccc(Cl)c1)c1noc(-c2ccc3c(c2)OCO3)n1,"inconclusive: 14.1 µM [inhibitor, full curve, poor fit]",
Cn1c(=O)n(Cc2c(F)cccc2Cl)c(=O)c2c1nc1n2CCN1c1ccc(F)cc1,"inconclusive: 100 µM [inhibitor, partial curve, poor fit]",
COc1ccc2oc(C(=O)N3CCN(C(c4ccccc4)c4ccccc4)CC3)c(C)c2c1,"inconclusive: 100 µM [inhibitor, partial curve, poor fit]",
CCN(CC)CCCNC(=O)c1ccc(Cn2c(SCc3ccccc3)nc3cccnc32)cc1,"inconclusive: 31.6 µM [inhibitor, partial curve, poor fit]",
O=C(NC1CCCC1)C(c1ccccn1)N(C(=O)c1csnn1)C1CC1 (stereo not given),"inconclusive: 3.16 µM [inhibitor, full curve]",
CCC(CC)C(CNC(=O)c1ccc(Cl)cc1F)N1CCOCC1 (stereo not given),"inconclusive: 89.1 µM [inhibitor, single point]",
Cc1cccc(N2CCN(C(=O)CN3C(=O)NC(C)(C)C3=O)CC2)c1C,inactive,
Cc1c(-c2cc(C(F)F)c3c(C4CC4)nn(C)c3n2)cnn1C,inactive,
C[C@@H]1CN(C(=O)c2ccc(-c3nnn(C)n3)cc2)C[C@@]1(O)C1CC1,inactive,
COc1ccc(C)cc1NC(=O)CN1CCCC1c1ccc2c(c1)OCCCO2 (stereo not given),"inconclusive: 35.5 µM [inhibitor, single point]",
CCOc1ccc(CCNC(=O)c2cc3ccccc3oc2=O)cc1OCC,inactive,
O=C(NC[C@H]1O[C@@H](CO)[C@@H](O)[C@H]1N1CCN(c2ccc(F)cc2)CC1)c1ccc(F)c(Cl)c1,"inconclusive: 7.08 µM [inhibitor, full curve, poor fit]",
COc1c(C)cccc1C(=O)Nc1ccc(-c2nc3ccccc3s2)c(Cl)c1,inactive,
Cc1cccn2c(=O)c3cc(C(=O)N4CCC(C)CC4)sc3nc12,"inconclusive: 100 µM [inhibitor, single point]",
CNc1nc2sc3c(c2c(=O)n1C)CC(C)(C)SC3,"inconclusive: 35.5 µM [inhibitor, partial curve, poor fit]",

SMILES,Potency,"activity change, negative = inhibition"
Cc1oc2cc(OCCN3CCN(CCO)CC3)ccc2c(=O)c1-c1ccc(Br)cc1,active: 35.5 µM,
COc1ccc(C(=O)NCc2nc3ccccc3[nH]2)cc1OC,inactive,
COCCN1CC(CO)C2(CCN(Cc3cc(F)c(F)cc3F)CC2)C1 (stereo not given),"inconclusive: 20 µM [inhibitor, partial curve, poor fit]",
CCc1ccc(C2=NN(C(=O)OC)C(O)(C(F)(F)F)C2)cc1 (stereo not given),"inconclusive: 50.1 µM [inhibitor, partial curve, poor fit]",
CC(=O)Nc1sc(N/N=C/c2ccc(C)cc2)nc1-c1ccc(C)cc1,"inconclusive: 70.8 µM [inhibitor, partial curve, poor fit]",
O=C(COc1cccc(C(F)(F)F)c1)NCC(c1ccco1)N1CCCC1 (stereo not given),inactive,
COc1ccc(NC(=O)CN2C(=O)NC3(CCCCC3)C2=O)cc1,inactive,
CCCN(CCC)c1ccc(C2N=C(N)Nc3nc4ccccc4n32)cc1 (stereo not given),"inconclusive: 25.1 µM [inhibitor, partial curve, poor fit]",
O=C(OCC(=O)c1ccc(Cl)cc1Cl)c1ccc2c(c1)C(=O)N(c1cccc3ncccc13)C2=O,"inconclusive: 35.5 µM [inhibitor, partial curve, poor fit]",
COc1ccc(N(C)C(=O)c2c(C)oc3c2CN(Cc2ccc(F)cc2)CC3)cc1,"inconclusive: 35.5 µM [inhibitor, partial curve]",
Cc1c(C(=O)N(C)C2CC(C)(C)NC(C)(C)C2)oc2c(F)cccc12,"inconclusive: 100 µM [inhibitor, partial curve, poor fit]",
O=C(NCc1ccccc1)c1ccc(NC(=O)N2CC3CCCN3c3ccccc32)cc1 (stereo not given),,inconclusive: -39.1% [inhibitor]
COc1ccc(C2=NN3C(C2)c2cccc(OC)c2OC32CCN(C(C)=O)CC2)c(OC)c1 (stereo not given),"inconclusive: 89.1 µM [inhibitor, partial curve, poor fit]",
O=C(C[C@@H]1O[C@H](CNC(=O)Nc2ccccc2)[C@@H](O)[C@H]1O)NC1CC1,"inconclusive: 35.5 µM [inhibitor, full curve]",
Cc1ccc2nc(-c3ccc(F)cc3)c(Cc3ccsc3)n2c1,"inconclusive: 112 µM [inhibitor, single point]",
CCOc1ccc(CN2CCNC(=O)C2CC(=O)N(C)CC2CCOCC2)cc1 (stereo not given),inactive,
CCC(CC)C(=O)N1CC[C@H]2NC(=O)N(c3ccc(C)cc3)C(=O)[C@H]21,"inconclusive: 39.8 µM [inhibitor, single point]",
CCC(C)N(C(=O)COc1ccc(-c2nnco2)cc1)C1CCS(=O)(=O)C1 (stereo not given),"inconclusive: 63.1 µM [inhibitor, partial curve, poor fit]",
Cc1nc2c(ccc3nc(NC(=O)C4CC4)sc32)s1,inactive,
N#CC1=C2N=C(N)c3ccccc3N2C2=C(C(=O)CCC2)C1c1ccccc1F (stereo not given),inactive,
Cc1cnc(C(=O)N2CCN(c3ccc(C(F)(F)F)cn3)CC2)cn1,"inconclusive: 100 µM [inhibitor, partial curve, poor fit]",
